# From the supplement of paper PMC7024190
# Where a name gives a salt, the structure may show the parent alone. Some of the results follow. Repeats in this data set agree poorly, so a single value says little.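 A first-round screen of about ten thousand compounds sought those raising reporter output, using human embryonic kidney cells briefly transfected with a plasmid carrying a Renilla luciferase gene driven by the HSV-TK promoter.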
# Test system: HEK 293FT
# Experiment: log relative Renilla luciferase luminescence (reporter expression vs reference, reference not stated) (log (base not stated)); higher = higher recombinant reporter expression
# Conditions: 10 µM; time after transfection 48 h
row,SMILES,log
1,CC(C)NCC(O)COc1cccc2[nH]ccc12 (centres undefined) [pindolol],-0.0137
2,OC(CCN1CCCC1)(c1ccccc1)C1CCCCC1 (centres undefined) [procyclidine hydrochloride],0.00106
3,"CC(=O)/C(=C\c1ccccc1)CC(=O)O [levulinic acid,  3-benzylidenyl-]",0.0461
4,CC(CN(C)C)CN1c2ccccc2CCc2ccccc21 (centres undefined) [trimipramine maleate],-0.0623
5,C=C(C)[C@@H]1CC[C@]2(C)CC[C@]3(C)[C@H](CC[C@@H]4[C@@]5(C)CC[C@H](OC(C)=O)C(C)(C)[C@@H]5CC[C@]43C)[C@@H]12 [lupeol acetate],0.0865
6,COC(=O)[C@H]1[C@H]2C[C@H]3c4[nH]c5ccccc5c4CCN3C[C@H]2CC[C@@H]1O [rauwolscine hydrochloride],-0.11
7,CC1=C(/C=C/C(C)=C/C=C/C(C)=C/C=C/C=C(C)/C=C/C=C(C)/C=C/C(=O)[C@]2(C)C[C@@H](O)CC2(C)C)C(C)(C)C[C@H](O)C1 [capsanthin],0.236
8,C[C@H]1[C@H]2CC[C@H]3[C@@H]4CC=C5C[C@@H](N(C)C)CC[C@]5(C)[C@H]4CC[C@]23CN1C [conessine],0.0663
9,"O=C(O[C@@H]1Cc2c(O)cc(O)cc2O[C@@H]1c1cc(O)c(O)c(O)c1-c1c([C@H]2Oc3cc(O)cc(O)c3C[C@H]2OC(=O)c2cc(O)c(O)c(O)c2)cc(O)c(O)c1O)c1cc(O)c(O)c(O)c1 [2',2'-bisepigallocatechin digallate]",-0.0587
10,C[N+](C)(C)C[C@H](O)CC(=O)[O-] [levocarnitine],0.0267
11,CN1C(C(=O)Nc2ccccn2)=C(O)c2sc(Cl)cc2S1(=O)=O [lornoxicam],-0.0675
12,CC12CC3CC(C)(C1)CC(N)(C3)C2 [memantine hydrochloride],0.166
13,CC(C)=CCc1c(O)cc2oc(C)cc(=O)c2c1O [peucenin],0.158
14,COc1ccc(-c2cc(=O)c3c(OC)c(OC)c(OC)c(OC)c3o2)cc1 [tangeritin],0.242
15,Nc1ccc(S(=O)(=O)O)cc1.Nc1ccc(S(=O)(=O)O)cc1.[Zn] [sulfanilate zinc],-1.42
16,C#C[C@]1(O)CC[C@H]2[C@@H]3CCC4=Cc5oncc5C[C@]4(C)[C@H]3CC[C@@]21C [danazol],-0.00241
17,O=C(Nc1ccc([N+](=O)[O-])cc1Cl)c1cc(Cl)ccc1O [niclosamide],-1.8
18,CCOc1ccc(Cc2nccc3cc(OCC)c(OCC)cc23)cc1OCC [ethaverine hydrochloride],-0.0597
19,O=c1cc[nH]c(=O)[nH]1 [uracil],-0.0249

# 2 neighbouring entries from above, for reference:
row,SMILES,log
18,CCOc1ccc(Cc2nccc3cc(OCC)c(OCC)cc23)cc1OCC [ethaverine hydrochloride],-0.0597
19,O=c1cc[nH]c(=O)[nH]1 [uracil],-0.0249
